At least one structure is not confirmed: it was looked up by name or label, or the drawing left a doubt.
Test system: HEp3 cells
Assay: Transwell migration with pathway inhibitors, with or without anti-CD151 antibody 1A5
Format: cell-based, human

## COC[C@H]1OC(=O)c2coc3c2[C@@]1(C)C1=C(C3=O)[C@@H]2CCC(=O)[C@@]2(C)C[C@H]1OC(C)=O [Wortmannin]
  Transwell migration in the presence or absence of inhibitor, with or without 1A5: did neither influence the migration of untreated cells nor did it prevent the inhibition of migration by 1A5

Source: patent US10585102B2, “Characterization of cancer using detection of activated leukocyte cell adhesion molecule (ALCAM) shedding” (Vanderbilt University, priority 2012, dated 2020)
